The list shows a part of the results. Entries with a potency or affinity are not part of this list.

The test system of this test is Pseudomonas aeruginosa. The conditions noted are these: Concentration 20 uM; ASSAY_TEST Inhibition of Bacterial Growth; detection method Absorption (OD600); MEDIA CAMHB; plate type 384well; NBS; CORNING #3640; time 18 hr.
Usually Inhibition stands for the relative decrease from the control value, in per cent. For the compound `CO[C@@H]1CN(c2ccc(C#CC3(O)CN4CCC3CC4)c(Cc3ccccc3)n2)C[C@H]1O` (stereo not given in full), the Inhibition is on record as -5.15%.
Take `Cc1cc(C2=NOC(c3cc(Cl)c(F)c(Cl)c3)(C(F)(F)F)C2)ccc1C(=O)NCc1ccc2c(c1)C(C)(C)OB2O` (stereo not given): the Inhibition came to 3.88%.
The result for `Cc1nn(Cc2ccccc2)c(Cl)c1C(=O)NC1CCCCCC1` reads 0.66%; that for `Cc1cccc(C(=O)Nc2ccnc(N(C)C3CCN(CC(C)C)CC3)c2)c1`, 7.43%; that for `CNCCC(Oc1ccc(C(F)(F)F)cc1)c1ccccc1` (stereo not given) [FLUOXETINE], 5.21%.
In the case of `CO[C@@H](C(=O)N1Cc2[nH]nc(NC(=O)c3ccc(N4CCN(C)CC4)cc3)c2C1)c1ccccc1` [DANUSERTIB], the Inhibition is given as 5.56%.
Turning to `CC1(C)OB(O)c2ccc(C3=NOC(c4cc(Cl)c(F)c(Cl)c4)(C(F)(F)F)C3)cc21` (stereo not given), the Inhibition is recorded as 15.74%.
For `Nc1c2c(nc3sc4c(c13)CCCC4)CCCC2`, the Inhibition is 5%.
Turning to `Cc1nn(C)c(C)c1NS(=O)(=O)c1c(Cl)cc(-c2ccnc(N3CCNCC3)c2)cc1Cl`, the Inhibition worked out at 4.77%.
Consider `CC(=O)Oc1ccccc1C(=O)Nc1ncc([N+](=O)[O-])s1` [NITAZOXANIDE], for which the Inhibition amounted to 19.1%.

The record behind these values is ChEMBL document CHEMBL4513149, “CO-ADD screening of MMV (CH) - MMV compounds” (2021).
